Source: the supplement of paper PMC11006884
The targets with a hit were mostly taken out for another list; the other results follow. Single values of this set are uncertain. The entries are a selection whose mix differs from that of the whole data set.

Sequences of proteins named here, by UniProt entry; tags and fusion partners are left off. A change or cut given only in a name is not applied to a line headed by its entry.
UniProt Q9Y3F4: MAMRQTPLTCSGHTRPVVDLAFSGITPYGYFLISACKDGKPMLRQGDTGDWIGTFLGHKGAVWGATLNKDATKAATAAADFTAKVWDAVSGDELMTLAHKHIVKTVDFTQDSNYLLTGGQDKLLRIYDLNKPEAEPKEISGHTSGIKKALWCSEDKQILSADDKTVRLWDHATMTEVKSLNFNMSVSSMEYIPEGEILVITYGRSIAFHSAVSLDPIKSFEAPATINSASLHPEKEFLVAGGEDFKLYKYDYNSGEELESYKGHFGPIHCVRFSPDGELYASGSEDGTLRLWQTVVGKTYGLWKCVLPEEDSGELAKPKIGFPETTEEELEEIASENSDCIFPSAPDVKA
UniProt Q9UKV3: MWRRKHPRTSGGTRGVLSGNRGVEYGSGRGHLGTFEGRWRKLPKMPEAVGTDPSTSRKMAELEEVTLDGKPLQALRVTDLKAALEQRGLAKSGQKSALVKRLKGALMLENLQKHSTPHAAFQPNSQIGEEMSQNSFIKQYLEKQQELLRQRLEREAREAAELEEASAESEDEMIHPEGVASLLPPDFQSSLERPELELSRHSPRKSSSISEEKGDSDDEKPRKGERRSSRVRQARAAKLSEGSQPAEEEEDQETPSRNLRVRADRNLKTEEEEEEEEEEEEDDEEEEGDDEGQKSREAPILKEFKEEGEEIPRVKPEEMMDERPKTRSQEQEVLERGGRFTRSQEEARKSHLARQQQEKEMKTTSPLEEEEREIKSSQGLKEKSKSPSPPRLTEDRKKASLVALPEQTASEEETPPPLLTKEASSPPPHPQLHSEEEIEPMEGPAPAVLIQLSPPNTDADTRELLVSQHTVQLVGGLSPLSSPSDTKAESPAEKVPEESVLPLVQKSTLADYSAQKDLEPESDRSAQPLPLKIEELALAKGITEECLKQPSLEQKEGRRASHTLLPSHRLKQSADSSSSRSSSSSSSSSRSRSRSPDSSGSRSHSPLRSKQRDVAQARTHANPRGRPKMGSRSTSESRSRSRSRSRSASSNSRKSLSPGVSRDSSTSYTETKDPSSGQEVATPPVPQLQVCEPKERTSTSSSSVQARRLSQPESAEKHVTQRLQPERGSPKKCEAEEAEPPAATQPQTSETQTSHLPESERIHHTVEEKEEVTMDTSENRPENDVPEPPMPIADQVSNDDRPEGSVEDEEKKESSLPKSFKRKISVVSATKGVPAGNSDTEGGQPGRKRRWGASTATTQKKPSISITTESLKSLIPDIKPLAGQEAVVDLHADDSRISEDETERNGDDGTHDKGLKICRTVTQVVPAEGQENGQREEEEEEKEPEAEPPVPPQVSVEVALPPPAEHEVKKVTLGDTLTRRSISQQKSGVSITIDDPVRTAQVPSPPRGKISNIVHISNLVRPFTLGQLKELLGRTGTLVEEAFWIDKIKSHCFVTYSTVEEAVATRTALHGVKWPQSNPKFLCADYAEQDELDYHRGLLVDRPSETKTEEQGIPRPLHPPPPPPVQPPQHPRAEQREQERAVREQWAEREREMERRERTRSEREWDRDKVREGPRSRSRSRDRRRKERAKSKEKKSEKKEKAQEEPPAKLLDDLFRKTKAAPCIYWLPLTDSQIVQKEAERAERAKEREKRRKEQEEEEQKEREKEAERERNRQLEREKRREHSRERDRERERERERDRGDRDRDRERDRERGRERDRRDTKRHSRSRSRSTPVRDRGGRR
UniProt Q9Y2H0: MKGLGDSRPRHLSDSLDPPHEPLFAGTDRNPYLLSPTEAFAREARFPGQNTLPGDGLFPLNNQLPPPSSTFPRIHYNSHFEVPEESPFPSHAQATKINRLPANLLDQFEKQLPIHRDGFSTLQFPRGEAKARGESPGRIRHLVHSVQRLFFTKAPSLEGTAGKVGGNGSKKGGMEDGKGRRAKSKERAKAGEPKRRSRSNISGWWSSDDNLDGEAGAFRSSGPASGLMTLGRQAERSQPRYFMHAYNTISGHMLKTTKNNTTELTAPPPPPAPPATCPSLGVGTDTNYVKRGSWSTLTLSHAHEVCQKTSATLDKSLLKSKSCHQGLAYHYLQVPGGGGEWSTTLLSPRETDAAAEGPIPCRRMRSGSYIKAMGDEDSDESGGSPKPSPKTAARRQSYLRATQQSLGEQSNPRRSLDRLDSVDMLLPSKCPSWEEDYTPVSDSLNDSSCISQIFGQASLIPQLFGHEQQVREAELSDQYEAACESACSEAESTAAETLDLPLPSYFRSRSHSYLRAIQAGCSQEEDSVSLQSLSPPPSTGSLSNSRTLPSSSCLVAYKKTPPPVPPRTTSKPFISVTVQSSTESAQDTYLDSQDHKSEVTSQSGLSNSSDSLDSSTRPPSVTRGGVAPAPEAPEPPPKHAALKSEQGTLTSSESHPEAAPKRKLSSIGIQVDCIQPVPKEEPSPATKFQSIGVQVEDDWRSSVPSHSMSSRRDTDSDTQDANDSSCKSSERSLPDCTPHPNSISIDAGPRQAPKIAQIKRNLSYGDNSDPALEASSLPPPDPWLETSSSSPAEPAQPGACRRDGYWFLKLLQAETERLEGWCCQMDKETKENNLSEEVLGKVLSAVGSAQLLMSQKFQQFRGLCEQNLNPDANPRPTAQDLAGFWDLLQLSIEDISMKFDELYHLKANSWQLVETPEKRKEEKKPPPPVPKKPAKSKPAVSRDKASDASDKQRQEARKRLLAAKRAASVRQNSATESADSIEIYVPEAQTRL
UniProt Q9Y2X3: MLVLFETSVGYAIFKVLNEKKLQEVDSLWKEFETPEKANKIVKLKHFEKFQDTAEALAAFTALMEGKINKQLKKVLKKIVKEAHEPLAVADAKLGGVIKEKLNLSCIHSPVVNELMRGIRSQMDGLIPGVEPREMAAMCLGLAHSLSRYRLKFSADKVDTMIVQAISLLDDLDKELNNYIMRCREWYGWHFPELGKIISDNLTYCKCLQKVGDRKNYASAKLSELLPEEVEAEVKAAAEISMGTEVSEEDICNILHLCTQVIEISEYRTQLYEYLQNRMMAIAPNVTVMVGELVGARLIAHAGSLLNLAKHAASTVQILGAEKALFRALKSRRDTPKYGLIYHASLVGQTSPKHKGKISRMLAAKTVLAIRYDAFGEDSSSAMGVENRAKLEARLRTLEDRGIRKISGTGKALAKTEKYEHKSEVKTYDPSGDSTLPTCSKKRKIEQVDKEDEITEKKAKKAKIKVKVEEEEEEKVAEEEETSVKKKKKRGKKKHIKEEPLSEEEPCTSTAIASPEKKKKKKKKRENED
UniProt Q9ULC4: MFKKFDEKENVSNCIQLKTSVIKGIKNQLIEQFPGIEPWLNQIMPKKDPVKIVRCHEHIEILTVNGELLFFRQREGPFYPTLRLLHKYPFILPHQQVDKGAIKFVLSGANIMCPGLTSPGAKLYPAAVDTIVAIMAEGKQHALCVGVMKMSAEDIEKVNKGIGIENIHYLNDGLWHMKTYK
UniProt Q9UHD8: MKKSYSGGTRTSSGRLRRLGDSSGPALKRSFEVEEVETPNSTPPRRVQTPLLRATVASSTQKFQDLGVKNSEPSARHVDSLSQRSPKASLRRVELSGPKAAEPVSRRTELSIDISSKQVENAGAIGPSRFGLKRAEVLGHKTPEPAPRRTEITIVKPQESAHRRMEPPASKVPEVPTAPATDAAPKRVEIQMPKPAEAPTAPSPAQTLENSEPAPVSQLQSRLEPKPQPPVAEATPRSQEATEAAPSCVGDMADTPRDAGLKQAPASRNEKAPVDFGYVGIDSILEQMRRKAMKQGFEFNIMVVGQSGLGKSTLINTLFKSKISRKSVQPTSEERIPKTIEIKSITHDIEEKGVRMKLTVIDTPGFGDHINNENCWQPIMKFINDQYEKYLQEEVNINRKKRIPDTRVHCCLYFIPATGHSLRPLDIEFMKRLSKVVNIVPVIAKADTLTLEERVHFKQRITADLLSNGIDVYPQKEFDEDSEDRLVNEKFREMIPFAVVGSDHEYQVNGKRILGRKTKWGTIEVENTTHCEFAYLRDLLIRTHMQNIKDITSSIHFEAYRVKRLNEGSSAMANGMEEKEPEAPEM
UniProt Q9UM54, whole entry, looked up: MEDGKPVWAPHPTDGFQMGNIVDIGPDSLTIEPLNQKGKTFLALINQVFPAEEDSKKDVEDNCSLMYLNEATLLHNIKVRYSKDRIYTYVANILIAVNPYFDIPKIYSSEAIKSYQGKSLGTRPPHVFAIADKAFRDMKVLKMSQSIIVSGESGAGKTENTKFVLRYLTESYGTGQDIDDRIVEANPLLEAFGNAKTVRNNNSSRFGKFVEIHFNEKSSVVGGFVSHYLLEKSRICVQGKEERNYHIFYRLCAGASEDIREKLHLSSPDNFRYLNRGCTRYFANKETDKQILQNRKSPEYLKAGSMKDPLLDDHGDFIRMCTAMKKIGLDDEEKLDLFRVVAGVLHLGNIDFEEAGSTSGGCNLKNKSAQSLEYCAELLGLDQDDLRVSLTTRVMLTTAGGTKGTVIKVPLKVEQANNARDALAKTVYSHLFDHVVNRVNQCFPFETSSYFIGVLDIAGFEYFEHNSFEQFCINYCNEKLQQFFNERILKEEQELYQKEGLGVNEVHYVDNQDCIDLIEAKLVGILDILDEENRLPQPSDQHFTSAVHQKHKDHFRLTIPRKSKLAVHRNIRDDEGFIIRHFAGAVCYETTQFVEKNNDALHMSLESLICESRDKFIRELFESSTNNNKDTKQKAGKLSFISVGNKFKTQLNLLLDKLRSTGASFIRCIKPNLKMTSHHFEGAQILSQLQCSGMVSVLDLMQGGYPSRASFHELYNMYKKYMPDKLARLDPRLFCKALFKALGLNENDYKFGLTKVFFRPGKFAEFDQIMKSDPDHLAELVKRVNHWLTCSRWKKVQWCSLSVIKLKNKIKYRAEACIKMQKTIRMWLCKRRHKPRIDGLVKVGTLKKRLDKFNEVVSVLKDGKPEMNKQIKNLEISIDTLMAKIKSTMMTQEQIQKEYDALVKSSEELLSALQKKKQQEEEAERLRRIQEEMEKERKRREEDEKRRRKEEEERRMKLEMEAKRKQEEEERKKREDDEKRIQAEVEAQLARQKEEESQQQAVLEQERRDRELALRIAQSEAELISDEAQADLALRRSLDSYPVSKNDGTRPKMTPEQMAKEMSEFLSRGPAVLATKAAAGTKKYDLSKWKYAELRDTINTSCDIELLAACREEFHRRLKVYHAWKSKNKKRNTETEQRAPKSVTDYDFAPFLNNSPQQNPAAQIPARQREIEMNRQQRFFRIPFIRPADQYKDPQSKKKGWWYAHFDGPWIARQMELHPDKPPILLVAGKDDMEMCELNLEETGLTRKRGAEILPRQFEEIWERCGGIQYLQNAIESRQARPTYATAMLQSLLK
UniProt Q9Y2A7: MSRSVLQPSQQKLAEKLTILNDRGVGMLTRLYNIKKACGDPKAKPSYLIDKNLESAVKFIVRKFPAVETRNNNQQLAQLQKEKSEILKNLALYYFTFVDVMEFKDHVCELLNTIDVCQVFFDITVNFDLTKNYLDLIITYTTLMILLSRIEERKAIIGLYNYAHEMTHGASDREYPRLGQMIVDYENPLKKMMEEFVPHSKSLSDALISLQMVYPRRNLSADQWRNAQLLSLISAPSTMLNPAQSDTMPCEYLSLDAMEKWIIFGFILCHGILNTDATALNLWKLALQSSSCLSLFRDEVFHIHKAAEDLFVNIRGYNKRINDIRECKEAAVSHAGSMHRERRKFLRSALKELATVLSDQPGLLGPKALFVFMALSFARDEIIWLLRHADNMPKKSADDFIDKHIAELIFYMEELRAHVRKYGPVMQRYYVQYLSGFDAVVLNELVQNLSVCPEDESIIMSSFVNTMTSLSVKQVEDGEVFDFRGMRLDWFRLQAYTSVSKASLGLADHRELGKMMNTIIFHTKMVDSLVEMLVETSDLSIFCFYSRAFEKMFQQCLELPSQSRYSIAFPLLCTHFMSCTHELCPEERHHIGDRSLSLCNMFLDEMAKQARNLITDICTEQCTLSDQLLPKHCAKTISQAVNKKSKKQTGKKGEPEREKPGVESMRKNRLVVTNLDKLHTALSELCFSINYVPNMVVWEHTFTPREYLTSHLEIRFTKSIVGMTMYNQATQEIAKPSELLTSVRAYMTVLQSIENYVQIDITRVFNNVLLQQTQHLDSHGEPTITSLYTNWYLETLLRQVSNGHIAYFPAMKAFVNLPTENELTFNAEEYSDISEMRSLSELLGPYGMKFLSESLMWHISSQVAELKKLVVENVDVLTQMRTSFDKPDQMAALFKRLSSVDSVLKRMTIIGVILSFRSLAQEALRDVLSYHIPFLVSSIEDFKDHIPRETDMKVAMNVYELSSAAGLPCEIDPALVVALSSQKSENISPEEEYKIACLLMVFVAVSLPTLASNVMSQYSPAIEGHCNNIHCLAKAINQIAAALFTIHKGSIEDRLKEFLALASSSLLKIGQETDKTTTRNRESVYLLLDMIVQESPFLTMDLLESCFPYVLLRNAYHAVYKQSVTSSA

The targets below were run with COC(=O)/C=C/c1ccccc1 [methyl cinnamate] (assay: log2 ratio of iodoacetamide-alkyne labeling of the cysteine site, DMSO over compound (competition); higher = stronger covalent engagement of the cysteine by the compound, active = 1 or more). Conditions: 500 µM; treatment time 1 h; system: HEK293T cell lysate.
Procedure, shortened: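 For each cysteine, the log2 competition ratio is mean control-channel reporter intensity over mean compound-channel reporter intensity. HEK293T lysate (2 mg/mL) was exposed to vehicle or electrophile (500 µM, 1 h, ambient temperature), labelled with iodoacetamide alkyne (1 h), clicked to sCIP-TMT reagents, digested overnight with trypsin at 37 °C, streptavidin-enriched and analysed by Orbitrap Eclipse LC-MS/MS with FAIMS and FragPipe. Cysteines quantified in only one of three replicates, each with duplicate channels, were excluded.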

log2 ratio of iodoacetamide-alkyne labeling, inactive:
ANAPC7 C131 (UniProt Q9UJX3) -0.039, UniProt Q9Y3I0_C122 0.0555, FAF1 C260 (UniProt Q9UNN5) -0.116, PLAA C605 (UniProt Q9Y263) 0.0356, STRAP C340 (UniProt Q9Y3F4) 0.00348, SCML2 C559 (UniProt Q9UQR0) 0.268, ACIN1 C733 (UniProt Q9UKV3) 0.404, DLGAP4 C726 (UniProt Q9Y2H0) 0.4, GTF3C4 C713 (UniProt Q9UKN8) 0.112, NOP58 C205 (UniProt Q9Y2X3) 0.121, MCTS1 C14 (UniProt Q9ULC4) 0.276, SRRM2 C2116 (UniProt Q9UQ35) 0.0494, TPX2 C145 (UniProt Q9ULW0) -0.0179, UniProt Q9UHD8_C248 0.373, HECTD1 C369 (UniProt Q9ULT8) 0.274, MRPS16 C26 (UniProt Q9Y3D3) 0.0942, BAZ1B C953 (UniProt Q9UIG0) 0.0695, SNX6 C264 (UniProt Q9UNH7) -0.148, SLC39A10 C153 (UniProt Q9ULF5) 0.912, MYO6 C1236 (UniProt Q9UM54) 0.201, VPS4A C403 (UniProt Q9UN37) -0.0666, SRRM2 C1480 (UniProt Q9UQ35) 0.351, CORO1C C420 (UniProt Q9ULV4) 0.475, EXO1 C608 (UniProt Q9UQ84) 0.0988, ACOT9 C299 (UniProt Q9Y305) 0.0547, DCTN4 C258 (UniProt Q9UJW0) 0.0776, DIS3 C533 (UniProt Q9Y2L1) 0.155, UniProt Q9UPN4_C159 0.256, BAZ1B C1045 (UniProt Q9UIG0) 0.372, UniProt Q9Y3I0_C54 -0.177, TDRKH C419 (UniProt Q9Y2W6) 0.132, NCKAP1 C599 (UniProt Q9Y2A7) -0.0148, NOSIP C8 (UniProt Q9Y314) 0.493, UniProt Q9Y312_C156 0.345, GNE C357 (UniProt Q9Y223) 0.0402, MYO6 C1102 (UniProt Q9UM54) 0.26, UniProt Q9Y2D5_C296 0.254
